This is one part of the list. Further columns of the screen follow, without active or inactive calls. Compounds called inactive in the main read-out are mostly missing here. Potencies come from curve fits of mixed quality, noted in brackets.
Assay: qHTS for identification of novel therapeutic agents for treatment of microphthalmiaassociated transcription factor (MiT) renal cell carcinoma (RCC) (AID 1963991)
Details: CellTiter-Glo, 48 h; for z-score: stronger effect = lower value
Method in brief: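 Curves over 11 concentrations were fitted to CellTiter-Glo luminescence, scaled between empty wells (0%) and DMSO (100%) viability. Cells were UOK109, UOK124 and UOK145 TFE3-fusion RCC lines at 500/well, exposed 48 hours at 37 C.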

[1] = TFE3-RCC UOK109 viability, measured here: UOK109 Z-AUC
[2] = TFE3-RCC viability, measured here: UOK124 Z-AUC
[3] = TFE3-RCC viability, measured here: UOK124 cell viability
[4] = TFE3-RCC viability, measured here: UOK145 Z-AUC
[5] = TFE3-RCC viability, measured here: UOK145 cell viability

| Structure (SMILES) | z-score [1] | z-score [2] | AC50 [3] | z-score [4] | AC50 [5] |
| --- | --- | --- | --- | --- | --- |
| CC(=O)NCC(=O)N1[C@H]2CC[C@H]1c1cc(Nc3ncc(C(F)(F)F)c(NC4CCC4)n3)ccc12 | -0.15 | -0.566 | 26.4 µM [falling, partial curve] | 0.192 | 18.7 µM [falling, partial curve] |
| Cc1nc(NC(=O)N2CCC[C@@H]2C(N)=O)sc1-c1csc(C(C)(C)C)n1 | -1.86 | -0.284 | 3.72 µM [falling, full curve, poor fit] | 0.132 | 5.9 µM [falling, partial curve] |
| Cc1cn2c(-c3cn[nH]c3)cnc2c(Nc2ccc(C(=O)N3CCNCC3)cc2F)n1 | -0.241 | -0.0216 | 11.8 µM [falling, partial curve] | -0.0145 | 18.7 µM [falling, partial curve] |
| O=c1c(-c2ccc(O)cc2)coc2cc(OC3O[C@H](CO)[C@H](O)[C@H](O)[C@H]3O)cc(O)c12 (stereo not given in full) | 0.649 | -0.0817 | 18.7 µM [falling, partial curve, poor fit] | -0.418 | 16.6 µM [falling, partial curve] |
| CCOC(=O)N1CCN([N+]([O-])=NOc2ccc([N+](=O)[O-])cc2[N+](=O)[O-])CC1 | -0.237 | -0.465 | 14.8 µM [falling, partial curve] | -0.337 | 8.33 µM [falling, partial curve] |
| CCCCN1CCC(CNC(=O)c2c3n(c4ccccc24)CCCO3)CC1 | -1.33 | 0.54 | 26.4 µM [falling, single point] | -0.905 | 8.33 µM [falling, full curve] |
